Only a part is listed here, and it is no random draw.
Each target was assayed with COC(=O)C#Cc1ccccc1 [methyl 3-phenylpropiolate] (assay: log2 ratio of iodoacetamide-alkyne labeling of the cysteine site, DMSO over compound (competition); higher = stronger covalent engagement of the cysteine by the compound, active = 1 or more). Details: 500 µM; treatment time 1 h; system: HEK293T cell lysate.
Method in brief: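 Reporter intensities give each cysteine's log2 competition ratio as the mean of control channels over the mean of compound channels. The samples were HEK293T lysate (2 mg/mL) given vehicle or electrophile (500 µM, 1 h, ambient temperature), then iodoacetamide alkyne (1 h), followed by click coupling to sCIP-TMT reagents, pooling, trypsin digestion overnight at 37 °C, streptavidin enrichment, acid elution, Orbitrap Eclipse LC-MS/MS with FAIMS and FragPipe quantification. Duplicate channels and three replicates were run, and cysteines quantified in only one replicate were discarded.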

Chains of the proteins cited; added tags and fusions are not shown. Lines headed by an entry give the natural chain unless they say otherwise; changes in a name come on top.
UniProt O75369, whole entry, looked up: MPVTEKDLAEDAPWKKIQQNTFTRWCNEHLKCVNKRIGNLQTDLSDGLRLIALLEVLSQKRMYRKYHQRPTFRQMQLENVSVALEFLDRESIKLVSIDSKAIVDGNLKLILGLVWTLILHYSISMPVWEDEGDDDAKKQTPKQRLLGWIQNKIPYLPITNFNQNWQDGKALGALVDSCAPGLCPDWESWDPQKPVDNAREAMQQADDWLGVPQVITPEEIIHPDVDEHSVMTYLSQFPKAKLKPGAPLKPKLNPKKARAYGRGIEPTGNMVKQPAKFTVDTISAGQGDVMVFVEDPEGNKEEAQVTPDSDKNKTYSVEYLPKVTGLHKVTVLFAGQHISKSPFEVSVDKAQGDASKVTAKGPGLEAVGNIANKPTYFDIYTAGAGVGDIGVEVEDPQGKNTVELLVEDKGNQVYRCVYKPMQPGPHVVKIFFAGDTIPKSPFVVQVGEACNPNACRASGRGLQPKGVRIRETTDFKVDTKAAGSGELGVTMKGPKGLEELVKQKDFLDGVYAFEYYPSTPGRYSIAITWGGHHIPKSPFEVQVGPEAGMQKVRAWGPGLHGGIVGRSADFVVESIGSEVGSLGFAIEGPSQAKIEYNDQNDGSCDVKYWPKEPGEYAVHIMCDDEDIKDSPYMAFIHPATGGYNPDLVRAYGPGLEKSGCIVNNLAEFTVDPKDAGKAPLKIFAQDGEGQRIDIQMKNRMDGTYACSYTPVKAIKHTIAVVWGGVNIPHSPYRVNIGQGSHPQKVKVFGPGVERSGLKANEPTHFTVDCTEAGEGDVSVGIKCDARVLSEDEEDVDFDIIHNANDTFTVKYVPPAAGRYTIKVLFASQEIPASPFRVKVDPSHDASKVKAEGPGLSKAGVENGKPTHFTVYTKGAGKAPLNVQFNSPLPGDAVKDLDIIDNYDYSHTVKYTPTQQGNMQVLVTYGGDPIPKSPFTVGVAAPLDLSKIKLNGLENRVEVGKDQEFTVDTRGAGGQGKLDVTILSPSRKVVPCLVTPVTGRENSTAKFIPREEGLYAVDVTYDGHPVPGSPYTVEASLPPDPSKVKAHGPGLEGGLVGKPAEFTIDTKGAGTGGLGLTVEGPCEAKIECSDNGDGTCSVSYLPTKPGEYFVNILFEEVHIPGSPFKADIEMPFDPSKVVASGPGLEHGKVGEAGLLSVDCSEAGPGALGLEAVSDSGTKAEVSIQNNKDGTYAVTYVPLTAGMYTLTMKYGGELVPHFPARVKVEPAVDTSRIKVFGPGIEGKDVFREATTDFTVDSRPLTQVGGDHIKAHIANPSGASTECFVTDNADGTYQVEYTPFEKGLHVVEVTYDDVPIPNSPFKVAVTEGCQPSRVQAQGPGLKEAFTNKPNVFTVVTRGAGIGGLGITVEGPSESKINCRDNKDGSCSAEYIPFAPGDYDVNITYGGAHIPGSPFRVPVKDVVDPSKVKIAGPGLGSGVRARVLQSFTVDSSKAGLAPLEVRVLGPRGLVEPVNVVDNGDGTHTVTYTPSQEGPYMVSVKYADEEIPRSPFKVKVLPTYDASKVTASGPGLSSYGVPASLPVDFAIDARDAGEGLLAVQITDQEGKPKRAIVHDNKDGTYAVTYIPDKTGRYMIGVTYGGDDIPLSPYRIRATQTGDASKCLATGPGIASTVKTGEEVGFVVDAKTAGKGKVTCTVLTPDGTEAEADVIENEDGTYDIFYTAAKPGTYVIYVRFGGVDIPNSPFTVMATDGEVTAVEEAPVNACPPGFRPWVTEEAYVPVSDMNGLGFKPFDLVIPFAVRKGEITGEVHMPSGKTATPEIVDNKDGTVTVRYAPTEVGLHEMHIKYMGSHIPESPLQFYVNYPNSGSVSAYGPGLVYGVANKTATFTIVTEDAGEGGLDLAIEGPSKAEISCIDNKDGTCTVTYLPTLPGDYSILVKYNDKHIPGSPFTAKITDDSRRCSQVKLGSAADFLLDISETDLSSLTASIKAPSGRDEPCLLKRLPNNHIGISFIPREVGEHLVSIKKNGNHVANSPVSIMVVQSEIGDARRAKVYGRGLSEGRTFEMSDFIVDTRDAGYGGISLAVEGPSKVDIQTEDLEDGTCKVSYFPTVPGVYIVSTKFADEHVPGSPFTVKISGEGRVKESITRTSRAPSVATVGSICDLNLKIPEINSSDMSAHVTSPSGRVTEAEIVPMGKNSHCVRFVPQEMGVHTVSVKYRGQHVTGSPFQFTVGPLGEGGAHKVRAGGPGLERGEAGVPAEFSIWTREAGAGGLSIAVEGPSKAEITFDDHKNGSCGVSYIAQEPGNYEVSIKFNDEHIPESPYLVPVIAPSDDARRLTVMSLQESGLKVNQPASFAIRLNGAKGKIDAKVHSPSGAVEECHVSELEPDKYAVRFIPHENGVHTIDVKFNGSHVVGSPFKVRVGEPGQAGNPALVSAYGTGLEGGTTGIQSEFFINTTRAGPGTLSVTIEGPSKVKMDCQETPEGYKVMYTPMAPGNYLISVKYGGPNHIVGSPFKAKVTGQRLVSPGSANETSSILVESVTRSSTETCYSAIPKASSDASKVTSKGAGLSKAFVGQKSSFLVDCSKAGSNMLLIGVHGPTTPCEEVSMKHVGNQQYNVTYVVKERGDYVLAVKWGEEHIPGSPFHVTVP
UniProt O43513: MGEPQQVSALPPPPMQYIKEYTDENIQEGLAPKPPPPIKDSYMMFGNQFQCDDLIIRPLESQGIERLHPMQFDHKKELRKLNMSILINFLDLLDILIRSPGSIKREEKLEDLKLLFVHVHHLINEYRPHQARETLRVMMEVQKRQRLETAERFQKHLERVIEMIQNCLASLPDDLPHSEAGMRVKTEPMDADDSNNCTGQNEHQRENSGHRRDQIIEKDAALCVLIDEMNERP
UniProt O43542: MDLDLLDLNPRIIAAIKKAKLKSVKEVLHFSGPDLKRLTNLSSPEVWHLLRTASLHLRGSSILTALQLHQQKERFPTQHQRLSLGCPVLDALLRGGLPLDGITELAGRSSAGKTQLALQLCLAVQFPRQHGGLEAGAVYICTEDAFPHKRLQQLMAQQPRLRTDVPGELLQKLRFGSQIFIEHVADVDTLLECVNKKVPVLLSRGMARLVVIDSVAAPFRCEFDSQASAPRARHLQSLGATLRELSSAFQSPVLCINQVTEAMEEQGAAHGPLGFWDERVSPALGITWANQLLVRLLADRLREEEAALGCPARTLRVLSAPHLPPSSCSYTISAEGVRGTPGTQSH
UniProt O60232: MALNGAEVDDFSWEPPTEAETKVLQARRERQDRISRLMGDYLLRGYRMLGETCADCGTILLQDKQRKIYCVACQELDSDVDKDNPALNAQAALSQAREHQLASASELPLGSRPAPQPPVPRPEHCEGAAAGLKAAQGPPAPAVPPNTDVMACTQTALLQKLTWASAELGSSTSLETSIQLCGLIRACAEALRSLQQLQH
UniProt O60518: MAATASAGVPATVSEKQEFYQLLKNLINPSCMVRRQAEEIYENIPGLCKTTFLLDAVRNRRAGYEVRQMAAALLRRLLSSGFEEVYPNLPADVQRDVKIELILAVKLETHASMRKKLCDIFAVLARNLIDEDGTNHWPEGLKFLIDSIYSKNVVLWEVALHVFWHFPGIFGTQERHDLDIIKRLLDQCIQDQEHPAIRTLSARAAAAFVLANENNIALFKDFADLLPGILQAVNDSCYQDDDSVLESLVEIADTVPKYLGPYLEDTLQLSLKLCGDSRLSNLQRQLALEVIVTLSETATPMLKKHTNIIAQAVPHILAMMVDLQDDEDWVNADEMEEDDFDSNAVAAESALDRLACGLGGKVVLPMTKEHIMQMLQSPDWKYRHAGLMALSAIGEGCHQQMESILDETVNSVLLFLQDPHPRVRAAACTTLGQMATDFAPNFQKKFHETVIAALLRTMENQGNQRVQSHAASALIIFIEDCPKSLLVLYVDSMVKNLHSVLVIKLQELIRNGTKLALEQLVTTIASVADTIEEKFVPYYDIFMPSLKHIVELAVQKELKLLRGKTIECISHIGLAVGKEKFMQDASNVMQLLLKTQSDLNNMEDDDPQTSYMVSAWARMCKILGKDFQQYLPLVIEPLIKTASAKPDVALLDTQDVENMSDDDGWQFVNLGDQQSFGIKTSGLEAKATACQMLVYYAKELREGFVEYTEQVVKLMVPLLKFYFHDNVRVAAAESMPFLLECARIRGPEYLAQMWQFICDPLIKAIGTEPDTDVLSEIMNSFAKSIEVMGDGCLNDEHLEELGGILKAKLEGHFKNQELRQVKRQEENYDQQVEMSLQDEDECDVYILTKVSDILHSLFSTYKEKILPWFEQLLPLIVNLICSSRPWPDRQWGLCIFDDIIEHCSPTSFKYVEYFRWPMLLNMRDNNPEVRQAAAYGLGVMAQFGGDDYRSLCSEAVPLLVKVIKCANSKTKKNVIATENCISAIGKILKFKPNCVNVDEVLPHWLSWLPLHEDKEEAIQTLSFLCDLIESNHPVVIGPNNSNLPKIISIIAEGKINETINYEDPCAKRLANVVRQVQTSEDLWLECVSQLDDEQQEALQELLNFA
UniProt O60447: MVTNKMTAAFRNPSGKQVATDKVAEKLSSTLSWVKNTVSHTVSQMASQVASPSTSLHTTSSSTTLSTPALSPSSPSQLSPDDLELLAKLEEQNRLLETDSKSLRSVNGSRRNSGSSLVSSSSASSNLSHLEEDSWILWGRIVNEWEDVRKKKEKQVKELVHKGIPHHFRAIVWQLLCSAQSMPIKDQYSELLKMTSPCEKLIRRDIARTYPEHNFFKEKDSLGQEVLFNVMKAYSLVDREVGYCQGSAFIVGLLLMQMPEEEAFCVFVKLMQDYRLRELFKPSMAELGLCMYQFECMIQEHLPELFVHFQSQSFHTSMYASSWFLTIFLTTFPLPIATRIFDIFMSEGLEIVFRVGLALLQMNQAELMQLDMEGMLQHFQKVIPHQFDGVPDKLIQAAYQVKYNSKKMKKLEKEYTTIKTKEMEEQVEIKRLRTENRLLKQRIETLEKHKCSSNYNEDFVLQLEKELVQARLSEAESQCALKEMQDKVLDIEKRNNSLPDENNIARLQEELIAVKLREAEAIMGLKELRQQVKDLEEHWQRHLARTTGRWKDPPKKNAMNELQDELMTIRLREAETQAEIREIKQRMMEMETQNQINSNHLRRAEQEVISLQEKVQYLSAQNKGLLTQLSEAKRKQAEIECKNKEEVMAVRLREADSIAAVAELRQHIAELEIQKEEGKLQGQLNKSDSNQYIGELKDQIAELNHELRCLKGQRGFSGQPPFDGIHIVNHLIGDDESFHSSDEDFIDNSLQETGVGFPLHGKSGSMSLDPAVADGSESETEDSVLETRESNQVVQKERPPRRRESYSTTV
UniProt O75935, whole entry, looked up: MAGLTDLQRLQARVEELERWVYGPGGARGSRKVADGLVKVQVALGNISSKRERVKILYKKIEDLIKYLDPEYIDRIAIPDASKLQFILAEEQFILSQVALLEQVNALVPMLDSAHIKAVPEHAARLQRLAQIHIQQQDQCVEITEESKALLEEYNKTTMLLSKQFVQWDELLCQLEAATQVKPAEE
UniProt O75683: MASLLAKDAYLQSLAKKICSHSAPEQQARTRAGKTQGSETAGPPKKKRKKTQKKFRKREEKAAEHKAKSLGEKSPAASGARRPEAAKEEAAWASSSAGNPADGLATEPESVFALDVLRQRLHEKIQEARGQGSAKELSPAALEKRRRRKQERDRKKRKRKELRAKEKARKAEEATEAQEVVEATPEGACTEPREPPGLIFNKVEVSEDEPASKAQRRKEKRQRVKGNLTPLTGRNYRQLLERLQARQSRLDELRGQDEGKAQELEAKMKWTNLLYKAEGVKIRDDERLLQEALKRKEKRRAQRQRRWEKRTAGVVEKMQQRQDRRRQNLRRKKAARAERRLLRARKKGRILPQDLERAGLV
UniProt O60934: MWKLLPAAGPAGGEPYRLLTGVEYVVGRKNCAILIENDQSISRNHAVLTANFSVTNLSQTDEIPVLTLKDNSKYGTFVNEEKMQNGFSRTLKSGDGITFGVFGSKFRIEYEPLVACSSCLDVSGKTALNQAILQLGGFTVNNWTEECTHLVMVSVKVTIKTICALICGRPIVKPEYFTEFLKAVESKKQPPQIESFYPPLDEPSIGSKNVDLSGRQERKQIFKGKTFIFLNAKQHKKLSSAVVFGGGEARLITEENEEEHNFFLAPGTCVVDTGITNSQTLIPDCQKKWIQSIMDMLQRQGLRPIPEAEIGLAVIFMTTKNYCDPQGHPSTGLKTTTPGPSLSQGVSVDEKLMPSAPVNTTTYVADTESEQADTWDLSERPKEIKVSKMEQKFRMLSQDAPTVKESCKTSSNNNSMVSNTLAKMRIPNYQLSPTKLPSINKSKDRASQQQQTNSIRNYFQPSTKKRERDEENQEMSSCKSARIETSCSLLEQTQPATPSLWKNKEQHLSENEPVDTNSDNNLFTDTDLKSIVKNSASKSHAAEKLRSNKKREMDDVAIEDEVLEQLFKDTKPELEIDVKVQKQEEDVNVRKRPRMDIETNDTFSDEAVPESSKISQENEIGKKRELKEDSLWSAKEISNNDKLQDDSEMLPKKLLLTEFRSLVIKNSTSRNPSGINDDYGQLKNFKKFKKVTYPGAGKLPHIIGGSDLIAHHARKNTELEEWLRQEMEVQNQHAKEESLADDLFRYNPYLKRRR

log2 ratio of iodoacetamide-alkyne labeling, inactive:
FLNB C1280 (UniProt O75369) -0.0904, MED7 C223 (UniProt O43513) 0.124, XRCC3 C86 (UniProt O43542) 0.448, UniProt O60232_C70 0.131, SRGAP2 C820 (UniProt O75044) 0.721, RANBP6 C48 (UniProt O60518) -0.059, SNRNP200 C428 (UniProt O75643) 0.244, EVI5 C451 (UniProt O60447) 0.245, FZD6 C702 (UniProt O60353) 0.348, KATNA1 C314 (UniProt O75449) 0.147, CTNND1 C618 (UniProt O60716) 0.595, HTATSF1 C480 (UniProt O43719) 0.879, NCOR1 C2056 (UniProt O75376) 0.386, DCTN3 C140 (UniProt O75935) 0.415, FZD6 C615 (UniProt O60353) 0.416, AKAP8 C139 (UniProt O43823) 0.676, MPDZ C1794 (UniProt O75970) 0.137, FLNB C1617 (UniProt O75369) 0.17, SURF6 C19 (UniProt O75683) 0.57, FLNB C2556 (UniProt O75369) 0.079, NBN C478 (UniProt O60934) 0.83, H2AFY C297 (UniProt O75367) 0.405

— the supplement of paper PMC11006884
